## Primary screen of a compound library

By UniProt entry, the sequences of proteins in these tests, tags left out.
UniProt P9WPC5, whole entry: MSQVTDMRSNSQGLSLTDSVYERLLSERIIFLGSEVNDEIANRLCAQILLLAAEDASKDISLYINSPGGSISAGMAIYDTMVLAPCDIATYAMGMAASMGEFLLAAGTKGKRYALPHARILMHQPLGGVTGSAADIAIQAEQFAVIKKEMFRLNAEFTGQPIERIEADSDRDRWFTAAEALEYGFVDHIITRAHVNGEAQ
UniProt P9WPC3, whole entry partner: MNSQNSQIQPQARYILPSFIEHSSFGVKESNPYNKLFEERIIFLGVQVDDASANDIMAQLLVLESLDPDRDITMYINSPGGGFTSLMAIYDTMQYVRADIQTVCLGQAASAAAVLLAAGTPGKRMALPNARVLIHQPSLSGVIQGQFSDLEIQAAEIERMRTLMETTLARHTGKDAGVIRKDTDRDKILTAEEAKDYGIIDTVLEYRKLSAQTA

Data taken from ChEMBL document CHEMBL3988442, “University of Dundee, Small-Polar-MMV Screening Library” (2021).

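ClpP1P2, Mycobacterium tuberculosis (UniProt P9WPC5 and UniProt P9WPC3). Protease assay of ClpP1P2, read by the AMC dye that it sets free. Tested at 50 µM. Higher reads as stronger inhibition, judged from the few compounds that gave an IC50. Most other retested compounds had strongly negative values. About 69,000 compounds were tested under these conditions; 0.015% (about 10) showed 50% or more at least once.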

Values are the deposited “Percent Effect”, in %.
How 0% and 100% were set is not recorded. Most values in the screen are low, and negative values occur.
The compounds are a random part of those screened.

* CN1CCN(c2nsc(-c3cccnc3)c2C#N)CC1 | -0.05272%
* CC(NC(=O)CCNC(=O)c1ccoc1)c1ccccc1 (stereo not drawn) | -6.52%
* COc1cc(C(=O)NC(C)c2cccs2)cc2c1OCCO2 (stereo not drawn) | 11.74%
* CCOCC(=O)N1Cc2nccn2CC(CN2CCCC2)C1 (stereo not drawn) | 8.167%
* COCc1cccc(C(=O)N(C)Cc2ncc(C)c(OC)c2C)c1 | -4.394%
* COc1ccc(-c2cc(CN)ccc2F)c(OC)c1OC | 6.511%
* CC(C)NC(=O)C1CN(C(=O)NCc2ccccc2)CC12CCOCC2 (stereo not drawn) | 14.05%
* CCS(=O)(=O)N1CCC2(CC1)CN(c1ccsc1)C(=O)CO2 | -8.863%
* O=C(NCC1CC1)[C@H]1C[C@H]2OCC[C@H]2N(CCc2ccccc2)C1 | -6.37%
* CCOC(=O)CCCN1CCCC(C(=O)Nc2ccc(Cl)cn2)C1 (stereo not drawn) | -1.735%
* O=C(NCc1ccccc1)[C@H]1C[C@@H]2CN(S(=O)(=O)C3CC3)C[C@H]1O2 | -10.61%
* O=C(c1cccs1)N1CCN(Cc2cc(=O)c3ccccc3[nH]2)CC1 | -5.328%
* Cc1cc(CN2CCN(C(=O)NCc3ccc(C)s3)CC2)no1 | -9.712%
* CCOCCOC(C)C(=O)Nc1nccn1Cc1ccccc1 (stereo not drawn) | 0.1389%
* CSCCCNc1ncnc2cccc(F)c12 | -30.68%
* Cn1cccc1C(=O)NC[C@H]1C[C@@H]2CN(C(=O)c3ccno3)C[C@H]2O1 | 4.294%
* c1cncc(OC[C@@H]2CCC[C@@]23CNCCO3)c1 | 8.179%
* CN(C)CCn1c(=O)oc2ccc(NC(=O)CC(C)(C)C)cc21 | -3.919%
* COCCNC(=O)Cn1cc(OCc2ccccc2F)c(=O)cc1CO | 1.469%
* CN(C1CCCCC1)S(=O)(=O)N1CCN(Cc2ccon2)CC1 | -9.309%
* Cn1cc(CCC(=O)NS(=O)(=O)N2CCCc3ccccc32)cn1 | 20.01%
* O=C(Nc1ccc(-n2cccn2)c(F)c1)C1CCN(C(=O)C2CC2)CC1 | 7.65%
* Cc1cnc(C(=O)N2CCc3ncnc(C)c3CC2)cn1 | 5.849%
* COCCNc1nnc(S(=O)(=O)CCC(C)(C)C#N)s1 | -19.61%
* CCc1nccn1C1CCCN(C(=O)c2cccc3c2OCO3)C1 (stereo not drawn) | -1.21%
* COc1cccc2ccc(N3CCC(O)(C(=O)O)CC3)nc12 | -73.65%
* CN1CCN(c2cnn(Cc3ccc(S(C)(=O)=O)cc3)c(=O)c2)CC1 | -9.302%
* Fc1cccc(CN2CCC(c3noc(-c4ccccn4)n3)CC2)c1F | -28.73%
* Cc1nc(C)c(C(C)NCc2c(C)nn(C)c2N(C)C)s1 (stereo not drawn) | 8.149%
* CC(C)N1CCCC(C(=O)NCCCc2cnn(C)c2)C1 (stereo not drawn) | -8.806%
* CC(C)C(=O)N1CCN(C(=O)CCc2nnc(-c3ccccc3)o2)CC1 | -11.46%
* CC(C)N1CCC2(CCNCC2)C1=O | -0.66%
* CC(C)CCc1nc(CN2CCOC(Cn3cncn3)C2)cs1 (stereo not drawn) | -46.11%
* CN1CCC2(CCN(C(=O)c3ccccc3)CC2)C1 | -5.445%
* Cn1c(C2CCCN2C(=O)c2cn(CCN)nn2)nc2ccccc21 (stereo not drawn) | 2.28%
* CCc1nc(C2CCCN(C(=O)c3cccc(C(N)=O)c3)C2)no1 (stereo not drawn) | -29.71%
* COC(C)C(=O)NS(=O)(=O)c1ccc(F)c(C(F)(F)F)c1 (stereo not drawn) | -3.427%
* Cc1noc(CN2CCC(c3ccnn3CCO)CC2)n1 | 6.217%
* Cc1ccc(C(=O)N2CCC3(CC2)CCN(CCN(C)C)C3=O)cn1 | 7.196%
* COCCO[C@H]1CCN(Cc2cccs2)[C@H]1Cc1cccnc1 | -7.446%
* CN1C(=O)COc2ccc(C(=O)Cn3cnc4ccsc4c3=O)cc21 | 13.67%
* O=c1cc(Cn2cncn2)nc2n1CCCN(CC1CC1)C2 | 8.347%
* CS(=O)(=O)N1C[C@@H]2COC[C@@H](CC(=O)N3CCCCO3)[C@@H]2C1 | 16.49%
* O=C(NCc1cccs1)c1nc2c(o1)CN(c1ncccn1)C2 | 13.52%
* CN(CC1CCN(CCO)CC1)CC(O)c1ccc(F)cc1F (stereo not drawn) | -2.513%

2 of the entries, repeated:

structure	percent effect
COCCO[C@H]1CCN(Cc2cccs2)[C@H]1Cc1cccnc1	-7.446
Cc1cnc(C(=O)N2CCc3ncnc(C)c3CC2)cn1	5.849